Laboratory results reported in patent US10280198B2, “Therapeutic agents for reducing parathyroid hormone levels” (KAI PHARMACEUTICALS, INC., priority 2009, dated 2019).
At least one structure is not confirmed: it was looked up by name or label, or the drawing left a doubt.

Test system: plasma PTH
Assay: In vivo PTH lowering after IV bolus in isoflurane-anesthetized normal Sprague Dawley rats
Parameters: species or system rat
Details: Table 2, 0.5 mg/kg IV
Experimental: The peptides were administered intravenously at a dose of 0.5 mg/kg into isoflurane-anesthetized normal Sprague Dawley rats. A control group of rats was treated with saline. Blood was drawn prior to dosing and every hour for 4 hours. Rats were maintained under isoflurane anesthesia for the entire study. […] Percent PTH reduction was calculated according to the following formula: AUCcmpd treated/AUCsaline control*100.
An intravenous (IV) bolus of saline was used as a control. Plasma (K2EDTA) PTH levels were assessed prior to dosing and 1, 2, 3 and 4 hours after dosing. Rats were maintained under isoflurane anesthesia for the entire study. […] In FIG. 2B, PTH is shown as percent of the baseline pre-dose value.
A series of compounds having an L-amino acid residue substituted for a D-amino acid residue were prepared. The compounds were administered as an IV bolus to normal Sprague Dawley rats at a dose of 0.5 mg/kg. An intravenous (IV) bolus of saline was used as a control. […] Rats were maintained under isoflurane anesthesia for the entire study.

## CC(=O)N[C@H](CSSC[C@H](N)C(=O)O)C(=O)N[C@H](C)C(=O)N[C@H](CCCNC(=N)N)C(=O)N[C@H](CCCNC(=N)N)C(=O)N[C@H](CCCNC(=N)N)C(=O)N[C@H](C)C(=O)N[C@H](CCCNC(=N)N)C(N)=O [SEQ ID NO: 3, Ac-c(C)arrrar-NH2]
  % PTH reduction of baseline at 1 hour post IV administration of 0.5 mg/kg compound: 2%
